Assay results: patent US20020002140A1, “Novel bisphosphonates and uses thereof” (priority 2000, published 2002)

Test system: bone cell suspension, including osteoclasts and other cell types
Conditions: FIG. 3; concentrations up to 10^−4M

NCCCC(O)(P(=O)(O)O)P(=O)(O)O [alendronate, (4-amino-1-hydroxybutylidene)-1,1-bisphosphonic acid, reference compound]
toxicity (cell number): kills the majority of cells
